No constants are given. Whether binding was seen depends on the method and setting. For some of these results: Binding seen in cells or lysates may run through a third protein. Some binding calls cover weakened binding; strength is not graded here. Tags and fused reporters may be left off the sequences shown.
T1: Myc-tagged OLIG2^S147A (mouse) (UniProt Q9EQW6)
T1 sequence: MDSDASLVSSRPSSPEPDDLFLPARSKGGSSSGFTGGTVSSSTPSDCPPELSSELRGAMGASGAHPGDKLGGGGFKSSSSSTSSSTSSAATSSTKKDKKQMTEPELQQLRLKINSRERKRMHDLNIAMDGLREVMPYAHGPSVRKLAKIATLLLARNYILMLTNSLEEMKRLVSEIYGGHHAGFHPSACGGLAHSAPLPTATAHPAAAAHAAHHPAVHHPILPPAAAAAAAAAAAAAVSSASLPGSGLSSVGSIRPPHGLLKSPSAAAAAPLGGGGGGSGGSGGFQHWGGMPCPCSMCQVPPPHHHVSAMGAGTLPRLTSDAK

Sequences of proteins named here, by UniProt entry; tags and fusion partners are left off.
UniProt Q04888: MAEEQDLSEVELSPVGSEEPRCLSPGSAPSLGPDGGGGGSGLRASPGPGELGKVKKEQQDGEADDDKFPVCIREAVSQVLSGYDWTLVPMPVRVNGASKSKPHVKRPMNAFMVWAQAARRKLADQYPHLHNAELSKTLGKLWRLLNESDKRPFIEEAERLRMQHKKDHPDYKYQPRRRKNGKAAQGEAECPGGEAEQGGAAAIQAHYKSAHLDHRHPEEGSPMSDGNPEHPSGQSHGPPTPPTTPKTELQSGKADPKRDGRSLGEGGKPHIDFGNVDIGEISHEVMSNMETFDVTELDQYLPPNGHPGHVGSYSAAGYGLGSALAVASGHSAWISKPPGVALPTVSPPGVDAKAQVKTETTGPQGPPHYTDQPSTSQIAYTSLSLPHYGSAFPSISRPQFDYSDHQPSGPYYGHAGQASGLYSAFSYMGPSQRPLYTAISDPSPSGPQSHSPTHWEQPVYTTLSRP

T2: Myc-tagged OLIG2^WT (mouse) (UniProt Q9EQW6)
T2 sequence: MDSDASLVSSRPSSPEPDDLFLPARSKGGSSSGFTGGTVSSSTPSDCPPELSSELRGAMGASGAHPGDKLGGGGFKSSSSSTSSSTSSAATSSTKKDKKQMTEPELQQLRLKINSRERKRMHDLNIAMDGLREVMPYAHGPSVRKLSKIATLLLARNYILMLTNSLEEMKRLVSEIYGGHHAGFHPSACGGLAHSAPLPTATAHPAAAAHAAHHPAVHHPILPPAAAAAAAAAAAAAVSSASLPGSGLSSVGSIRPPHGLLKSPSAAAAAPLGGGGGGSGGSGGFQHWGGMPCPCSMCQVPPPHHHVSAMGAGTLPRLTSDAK

T3: Myc-tagged OLIG2^WT (mouse), Q9EQW6
T3 chain: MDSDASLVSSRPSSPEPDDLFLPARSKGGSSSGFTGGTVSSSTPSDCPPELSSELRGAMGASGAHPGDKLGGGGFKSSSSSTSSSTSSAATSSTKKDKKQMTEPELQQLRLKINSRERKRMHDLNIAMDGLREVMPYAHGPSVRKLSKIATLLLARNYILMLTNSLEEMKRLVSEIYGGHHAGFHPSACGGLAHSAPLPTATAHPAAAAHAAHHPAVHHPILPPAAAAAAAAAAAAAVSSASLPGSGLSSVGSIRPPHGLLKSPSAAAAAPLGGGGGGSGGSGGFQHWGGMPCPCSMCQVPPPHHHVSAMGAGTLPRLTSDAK

T4: OLIG2^WT, mammalian two-hybrid fusion (mouse), Q9EQW6
T4 chain: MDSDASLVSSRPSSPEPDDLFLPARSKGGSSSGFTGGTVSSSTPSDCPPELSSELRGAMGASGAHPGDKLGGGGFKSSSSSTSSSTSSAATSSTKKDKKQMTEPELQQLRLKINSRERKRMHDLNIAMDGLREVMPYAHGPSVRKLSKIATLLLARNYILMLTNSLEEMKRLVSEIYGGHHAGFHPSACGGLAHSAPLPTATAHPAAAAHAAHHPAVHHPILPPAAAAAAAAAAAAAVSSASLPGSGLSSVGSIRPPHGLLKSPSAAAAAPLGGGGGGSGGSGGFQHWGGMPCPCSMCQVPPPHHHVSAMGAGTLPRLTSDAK


Key:
[1] = biological target: T1, Myc-tagged OLIG2^S147A (mouse); assay: co-IP; Cos-7 cells cotransfected; lysate (50 mM Tris-HCl pH 7.5, 150 mM NaCl, 1% NP-40, 0.5% deoxycholate) treated with DNase1; IP with rabbit anti-Myc on protein G beads at 4°C, washes incl. 500 mM NaCl; WB with anti-V5
[2] = biological target: T2, Myc-tagged OLIG2^WT (mouse); assay: as above
[3] = biological target: T3, Myc-tagged OLIG2^WT (mouse), Q9EQW6; assay: as above; settings: remark: other sources report otherwise
[4] = biological target: T4, OLIG2^WT, mammalian two-hybrid fusion …; assay: two-hybrid; mammalian two-hybrid (CheckMate System, Promega) in Cos-7 cells, firefly luciferase normalised to Renilla; also with cotransfected catalytic subunit of PKA or dnPKA; settings: remark: other sources report otherwise

| Molecule | binding [1] | binding [2] | binding [3] | binding [4] |
| --- | --- | --- | --- | --- |
| V5-tagged SOX10 (from UniProt Q04888 1-466) | binds | binds |  |  |
| MASH1 (protein, UniProt Q02067 1-231) MESSGKMESGAGQQPQPPQPFLPPAACFFATAAAAAAAAAAAAQSAQQQQPQAPPQQAPQLSPVADSQPSGGGHKSAAKQVKRQRSSSPELMRCKRRLNFSGFGYSLPQQQPAAVARRNERERNRVKLVNLGFATLREHVPNGAANKKMSKVETLRSAVEYIRALQQLLDEHDAVSAAFQAGVLSPTISPNYSNDLNSMAGSPVSSYSSDEGSYDPLSPEEQELLDFTNWF | binds | binds |  |  |
| NKX2.2 (protein, UniProt P42586 1-273) MSLTNTKTGFSVKDILDLPDTNDEDGSVAEGPEEESEGPEPAKRAGPLGQGALDAVQSLPLKSPFYDSSDNPYTRWLASTEGLQYSLHGLAASAPPQDSSSKSPEPSADESPDNDKETQGGGGDAGKKRKRRVLFSKAQTYELERRFRQQRYLSAPEREHLASLIRLTPTQVKIWFQNHRYKMKRARAEKGMEVTPLPSPRRVAVPVLVRDGKPCHALKAQDLAAATFQAGIPFSAYSAQSLQHMQYNAQYSSASTPQYPTAHPLVQAQQWTW | binds | binds |  |  |
| V5-tagged OLIG2, Q9EQW6 1-323 (protein) MDSDASLVSSRPSSPEPDDLFLPARSKGGSSSGFTGGTVSSSTPSDCPPELSSELRGAMGASGAHPGDKLGGGGFKSSSSSTSSSTSSAATSSTKKDKKQMTEPELQQLRLKINSRERKRMHDLNIAMDGLREVMPYAHGPSVRKLSKIATLLLARNYILMLTNSLEEMKRLVSEIYGGHHAGFHPSACGGLAHSAPLPTATAHPAAAAHAAHHPAVHHPILPPAAAAAAAAAAAAAVSSASLPGSGLSSVGSIRPPHGLLKSPSAAAAAPLGGGGGGSGGSGGFQHWGGMPCPCSMCQVPPPHHHVSAMGAGTLPRLTSDAK |  |  | binds |  |

More lines, now with the values ahead:

| binding [1] | binding [2] | binding [3] | binding [4] | Molecule |
| --- | --- | --- | --- | --- |
| binds | binds |  |  | V5-tagged OLIG1 (protein, UniProt Q9JKN5 1-260) MYYAISQARVNAAPATMLRPQRPGDVQLGASLYELVGYRQPPISSSSSSSSSTASLLPKPAREKAEAPLAEPRGPAPESGGARADAKEEQQQQQLRRKINSRERKRMQDLNLAMDALREVILPYSAAHCQGAPGRKLSKIATLLLARNYILLLGSSLQELRRALGDGAGPAAPRLLLAGLPLLAAAPGSVLLAPGAVGPPETLRPTKYLSLALDEPPCGQFSLPAGGAGSPGLCSCAVCKFPHLVPAGLGLAAVQAQFSK |
|  |  |  | binds | OLIG2^WT, mammalian two-hybrid fusion, Q9EQW6 1-323 (protein) MDSDASLVSSRPSSPEPDDLFLPARSKGGSSSGFTGGTVSSSTPSDCPPELSSELRGAMGASGAHPGDKLGGGGFKSSSSSTSSSTSSAATSSTKKDKKQMTEPELQQLRLKINSRERKRMHDLNIAMDGLREVMPYAHGPSVRKLSKIATLLLARNYILMLTNSLEEMKRLVSEIYGGHHAGFHPSACGGLAHSAPLPTATAHPAAAAHAAHHPAVHHPILPPAAAAAAAAAAAAAVSSASLPGSGLSSVGSIRPPHGLLKSPSAAAAAPLGGGGGGSGGSGGFQHWGGMPCPCSMCQVPPPHHHVSAMGAGTLPRLTSDAK |
